# Test results taken from PubChem BioAssay AID504444 (National Center for Advancing Translational Sciences (NCATS), 2011).
# Among all 360,000 compounds or so, about 7,500 (2.1%) were called active. Inconclusive means that the source gave no clear call. Such entries were picked first, then a sample of the others. The call rests on the fitted dose curve; in most records, active means well fitted inhibition curve with a large enough effect; inconclusive means small, poorly fitted or top-dose-only effect, or effect the other way; inactive means flat fitted curve, though single readings scatter. Where the call is inconclusive, the potency comes from a doubtful curve fit.
# Assay: Nrf2 qHTS screen for inhibitors; further: nearly all actives have a fitted effect of over 60% in size
# Settings: A549 ARE-Fluc reporter, luciferase luminescence, 18-24 h; activity change, negative = inhibition: at 46 µM (top of the series)
# In short: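 A549 ARE_Fluc cells, 5000/well, 5% FBS OPTI-MEM; compounds in dose-response, 18-24 h at 37 °C/5% CO2; CellTiter-Fluor viability read (Ex 405/Em 525), then BugLite luciferase luminescence = Nrf2 activity.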
# On the % scale 0 is the no-effect control and ±100 the full control effect; potency means the concentration at half of the fitted maximal effect.
SMILES,"activity change, negative = inhibition",Potency
CCn1c(=NC(=O)C2COc3ccccc3O2)sc2c(OC)ccc(OC)c21 (stereo unspecified),inactive: -0.7%,–
CC(C)CCCCCCCCCCCCC(=O)NCC(=O)NC1C(C)OC(Nc2ncnc3nc[nH]c23)C(O)C1O (stereo unspecified),–,active: 0.0366 µM
COC(=O)C1=C(C)NC2=C(C(=O)CCC2)C1c1cn(Cc2ccc(Br)cc2)nc1-c1ccccc1 (stereo unspecified),–,"inconclusive: 20.6 µM [falling, partial curve, poor fit]"
CCn1nc(C(=O)NCC2COc3ccccc3O2)c2ccccc2c1=O (stereo unspecified),–,"inconclusive: 32.6 µM [falling, partial curve, poor fit]"
CCN1C(=O)C(CC(=O)Nc2ccc(OC)cc2)N(CCCN2CCN(c3ccc(F)cc3)CC2)C1=S (stereo unspecified),–,"inconclusive: 20.6 µM [activator, partial curve, poor fit]"
CCC(=O)N1CCN(c2ccccc2NC(=O)c2ccc([N+](=O)[O-])o2)CC1,inactive: -2.61%,–
O=C(O)CN1C(=O)/C(=C\c2ccc(OC(=O)c3ccco3)cc2)SC1=S,inactive: -7.82%,–
O=C(O)CNc1ccc(S(=O)(=O)C(F)(F)F)cc1[N+](=O)[O-],inactive: -8.7%,–
COc1ccc(OC)c(CNC(=O)c2c(C)oc3ncn(C)c(=O)c23)c1,–,"inconclusive: 20.6 µM [activator, single point]"
O=C(c1ccc2c(c1)CCN2S(=O)(=O)c1ccc(Cl)cc1)N1CCN(c2ccccc2)CC1,–,"inconclusive: 13 µM [falling, partial curve]"
CC(=O)c1ccc(OCc2cc(C(=O)N(C)C3CCOC3)no2)cc1 (stereo unspecified),–,"inconclusive: 23.1 µM [activator, partial curve]"
O=C1CN(C(=O)CSc2nc(-c3ccccc3)cs2)c2ccccc2N1,–,"inconclusive: 18.4 µM [falling, partial curve, poor fit]"
CCOC(=O)C(C(=O)OCC)C(C#N)c1ccccc1 (stereo unspecified),–,"inconclusive: 13 µM [activator, partial curve, poor fit]"
Cc1cc2oc(=O)cc(-c3ccccc3)c2c(C)c1-c1ccc(C(F)(F)F)cc1,–,"inconclusive: 29.1 µM [falling, single point]"
Cc1c(C(=O)Nc2ccc(Cl)cc2)c2ccccn2c1CCc1ccncc1,–,"inconclusive: 1.16 µM [activator, full curve, poor fit]"
O=S1(=O)c2ccccc2OC(COCc2ccccc2)CN1Cc1ccccc1 (stereo unspecified),–,"inconclusive: 18.4 µM [falling, partial curve, poor fit]"
CCN1CCN(CCNC(=O)Nc2ccc([N+](=O)[O-])cc2)CC1,–,"inconclusive: 5.8 µM [falling, partial curve, poor fit]"
Cc1cccc(C)c1NC(=O)C(C)c1ccc(-c2ccccc2)c(F)c1 (stereo unspecified),–,"inconclusive: 29.1 µM [falling, single point]"
CCS(=O)(=O)c1ccc(OC)c(N=Nc2ccc(O)c3ncccc23)c1,–,"inconclusive: 20.6 µM [falling, single point]"
O=C(OCCCc1ccncc1)c1ccc(S(=O)(=O)N2CCOCC2)cc1,–,"inconclusive: 0.146 µM [falling, full curve, poor fit]"
COc1ccc(C(OC(=O)c2ccco2)C(=O)NC2CCCC2)cc1 (stereo unspecified),inactive: -7.96%,–
Cc1ccnc(NC(=O)c2cccc(NC(=O)c3ccc(Cl)cc3)c2)c1,–,"inconclusive: 23.1 µM [falling, partial curve, poor fit]"

# Structural class: those above containing a nitro group on carbon.
SMILES,"activity change, negative = inhibition",Potency
CCC(=O)N1CCN(c2ccccc2NC(=O)c2ccc([N+](=O)[O-])o2)CC1,inactive: -2.61%,–
O=C(O)CNc1ccc(S(=O)(=O)C(F)(F)F)cc1[N+](=O)[O-],inactive: -8.7%,–
CCN1CCN(CCNC(=O)Nc2ccc([N+](=O)[O-])cc2)CC1,–,"inconclusive: 5.8 µM [falling, partial curve, poor fit]"

# Carrying on.

SMILES,"activity change, negative = inhibition",Potency
O=C1ON=C(c2ccccc2)/C1=C/c1ccc(-c2ccccc2[N+](=O)[O-])o1,–,"inconclusive: 16.4 µM [falling, single point]"
Cc1ccc(CSc2nc(-c3ccc(C(C)(C)C)cc3)nc3cc(=O)[nH]n23)cc1,–,"inconclusive: 29.1 µM [activator, single point]"
Cc1ccccc1OCC(=O)Nc1ccc2c(c1)OCCO2,–,"inconclusive: 29.1 µM [activator, single point]"
CCn1c(Cn2nnc(-c3ccccc3)n2)nnc1SCC(=O)Nc1cccc(C(C)=O)c1,–,"inconclusive: 29.1 µM [falling, single point]"
CC(=O)c1cccc(S(=O)(=O)N2CCCC(c3nc4c(nnn4Cc4ccccc4Cl)c(=O)[nH]3)C2)c1 (stereo unspecified),–,"inconclusive: 29.1 µM [falling, single point]"
N#CC1=C(N)N2C(=C(C#N)C13CCCCC3)SC1CCCCC12O (stereo unspecified),–,"inconclusive: 14.6 µM [falling, partial curve, poor fit]"
CCOCCc1nn2c(=O)cc(COC(=O)CNC(=O)c3ccc(F)cc3)nc2s1,–,"inconclusive: 29.1 µM [activator, single point]"
O=S(=O)(O)c1cccc2c(N=Nc3ccc(O)c4ncccc34)cccc12,inactive: -39.2%,–
CCOc1ccc(NC(=O)CN(C)C(=O)c2ccccc2OCCOc2ccccc2)cc1OCC,–,"inconclusive: 14.6 µM [falling, partial curve, poor fit]"
O=C(Nc1ccc2nc3ccccc3nc2c1)c1ccccc1,–,"inconclusive: 29.1 µM [falling, single point]"
Cc1cc(C)c(S(=O)(=O)NCC23C=CC(O2)C2C(=O)N(c4ccccc4)C(=O)C23)c(C)c1 (stereo unspecified),inactive: -0.43%,–
CCOc1ccc(CCNC(=O)c2nnc(CS(=O)(=O)c3ccccc3)o2)cc1OCC,–,"inconclusive: 20.6 µM [falling, single point]"
O=C(NC1=NCCS1)c1ccc(Cl)c(S(=O)(=O)N2CCc3ccccc32)c1,–,"inconclusive: 29.1 µM [falling, single point]"
COc1ccc(/C=C/C(=O)N(CC(C)C)CC(C)C)cc1Br,–,"inconclusive: 16.4 µM [falling, single point]"
Cc1ccc(N2C(=O)/C(=C\c3ccco3)SC2=S)cc1,–,"inconclusive: 29.1 µM [falling, single point]"
COc1cc(C)ccc1OCc1cc(C(=O)N2CCC(c3ccc(F)cc3)C2)no1 (stereo unspecified),–,"inconclusive: 0.366 µM [activator, full curve]"
CCCCCCCCOC(=O)C1=C(C)Nc2nnnn2C1c1cccs1 (stereo unspecified),–,"inconclusive: 32.6 µM [falling, single point]"
COCCOC(=O)c1c(C)nc(SCC(=O)Nc2ccc(OC)cc2)c(C#N)c1-c1ccco1,–,"inconclusive: 16.4 µM [falling, single point]"
Cc1nc2ccccc2n1CCOc1ccccc1,–,active: 14.6 µM
COc1ccc(C(=O)C2CCN(CC(=O)Nc3cc(C)cc(C)c3)CC2)cc1,–,"inconclusive: 5.8 µM [falling, partial curve, poor fit]"
NC1=C(Cl)C(=O)c2ccccc2C1=O,–,active: 16.4 µM
N/C(=N\c1nc2ccccc2o1)NC(=O)c1cccc(Br)c1,–,"inconclusive: 10.3 µM [falling, partial curve, poor fit]"

# Entries of single compounds, quoted from the list:
# `O=S(=O)(O)c1cccc2c(N=Nc3ccc(O)c4ncccc34)cccc12` is listed as activity change, negative = inhibition: inactive: -39.2%
# `CCOC(=O)C(C(=O)OCC)C(C#N)c1ccccc1` (stereo unspecified) is listed as Potency: inconclusive: 13 µM [activator, partial curve, poor fit]

# Following part:

SMILES,"activity change, negative = inhibition",Potency
Cc1ccc2nc(-c3ccncc3)c(Nc3ccc(C(C)C)cc3)n2c1,inactive: 3%,–
O=C(Nc1ccccc1Cl)c1ccccc1,–,"inconclusive: 10.3 µM [activator, partial curve]"
O=C(CN1C(=O)NC2(CCCC2)C1=O)Nc1ccccc1,inactive: 5.1%,–
COc1cc(OC)cc(C(=O)Nc2ccc(NC(=O)c3ccco3)c(Cl)c2)c1,–,active: 25.9 µM
CCN(C(=O)c1cc2cc(Br)cc(OC)c2oc1=O)c1ccccc1,inactive: -13.1%,–
Cc1ccc(C(=O)Nc2nc3c(s2)CCCC3)o1,–,"inconclusive: 0.58 µM [activator, partial curve, poor fit]"
CCOC(=O)c1c(C)[nH]c(C(=O)OCC(=O)Nc2ccccc2)c1C,–,"inconclusive: 25.9 µM [falling, single point]"
CCCCCOC(=O)c1[nH]c2c(c1C)C(=O)CC(c1ccco1)C2 (stereo unspecified),–,"inconclusive: 29.1 µM [falling, single point]"
c1coc(CNc2ncnc3[nH]ncc23)c1,–,"inconclusive: 29.1 µM [falling, single point]"
O=c1[nH][nH]c2nc(C(F)(F)F)cc(C(F)(F)F)c12,–,"inconclusive: 4.61 µM [falling, full curve, poor fit]"
CCn1c(C)nc2cc(-c3nc4n(n3)Cc3ccccc3-4)ccc21,–,active: 2.31 µM
CCCOc1ccc(Cc2c(Cl)nc(SC)nc2NC)cc1,–,active: 2.06 µM
CCC(=O)N1c2ccc(S(=O)(=O)N3CCN(c4cc(C)ccc4C)CC3)cc2CC1C (stereo unspecified),–,active: 16.4 µM
FC(F)(F)c1cnc(N2CCC(=NOCc3ccc(Cl)cc3)CC2)c(Cl)c1,–,active: 8.2 µM
COC(=O)c1ccc(NC(=O)CCN2CCN(c3ccccc3)CC2)cc1,–,"inconclusive: 23.1 µM [falling, partial curve, poor fit]"
CC1(C)CC(O)C(C)(C)N1O (stereo unspecified),–,"inconclusive: 7.31 µM [falling, full curve, poor fit]"
Cc1ccnc(NC(=O)c2sc3cc(Cl)ccc3c2Cl)c1,–,"inconclusive: 2.06 µM [activator, full curve]"
COC(=O)c1c(-c2cccs2)csc1NC(=O)c1cc(OC)c(OC)c(OC)c1,inactive: -12.8%,–
Cc1ccc2nc(SCC(=O)Nc3ccc4c(c3)CCC4)[nH]c2c1,–,"inconclusive: 4.11 µM [activator, partial curve, poor fit]"
COc1ccc(-c2cn3c(n2)sc2cc(C(=O)Nc4ccc(F)cc4Cl)ccc23)cc1,–,"inconclusive: 29.1 µM [activator, single point]"
O=c1c2ccccc2sn1-c1cc(S(=O)(=O)N2CCOCC2)ccc1N1CCCCC1,–,"inconclusive: 0.731 µM [activator, full curve, poor fit]"
C/C(=N\Nc1ccc([N+](=O)[O-])cc1)c1ccc(O)cc1,–,"inconclusive: 18.4 µM [activator, single point]"
